Assay results from PubChem BioAssay AID2685 (National Center for Advancing Translational Sciences (NCATS), 2010).
About 2,100 (0.66%) of roughly 320,000 compounds were called active. This list was built around the results that the source calls inconclusive (neither active nor inactive); the mix of calls is not that of the screen. Calls come from the whole dose curve; as a rule, active = well fitted inhibition curve with a large enough effect in the signal ratio, with a control signal flat (not every such curve was filed as active); inconclusive = small, poorly fitted or top-dose-only effect, or effect the other way, or a change in a side signal; inactive = flat fitted curve, though single readings scatter; the % refers to the signal ratio. Potencies of inconclusive entries are doubtful fits and often do not repeat.

experiment: qHTS Assay for Lipid Storage Modulators in Drosophila S3 Cells; conditions: BODIPY lipid droplet fluorescence, 18-24 h, cells fed with added oleic acid; lipid storage change, negative = inhibition: at 46.1 µM (top of the series) unless noted
Procedure, shortened: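 Drosophila S3 cells got compounds at several concentrations plus oleic acid (400 uM solution). Laser-scanning cytometry with 488 nm excitation read lipid droplets at 500-530 nm and cells at 575-640 nm. Percent activity was relative to 20 uM Triacsin C.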
% is set by controls: 0 for no effect and ±100 for the full control effect; potency is the fitted concentration of half-maximal effect.

Potency, inconclusive:
O=C(CCN1CCN(c2ccccc2)CC1)NNC(=O)Cc1ccc(Br)cc1 32.6 µM [falling, partial curve, poor fit]
COC(=O)[C@H](C)NC(=O)Nc1cc(Cl)ccc1C 3.66 µM [activator, partial curve, poor fit]
CCc1ccc(-c2nn(-c3ccccc3)cc2C2SCC(=O)N2Cc2ccco2)cc1 (configuration not stated) 6.51 µM [falling, single point]
Cc1ccccc1NC(=O)COC(=O)C1CC2CCCC(C1)C2=O (configuration not stated) 18.4 µM [falling, partial curve, poor fit]
CCCCCN(C(=O)CSc1n[nH]c(-c2ccc(C)cc2)n1)c1c(N)n(CCCC)c(=O)[nH]c1=O 3.26 µM [falling, full curve, poor fit]
O=C(NCC(=O)N1CCN(C(=O)c2ccco2)CC1)c1ccc(Br)cc1 0.0366 µM [activator, full curve, poor fit]
Cc1ccc(C2(C)NC(=O)N(CC(=O)N3CCN(S(=O)(=O)c4ccc(Cl)s4)CC3)C2=O)cc1 (configuration not stated) 7.31 µM [falling, partial curve]
CCN(C(=O)Cc1c(C(=O)O)n(C)c2ccccc12)c1cc(OC)ccc1OC 3.66 µM [falling, full curve]
COc1ccc(CSc2n[nH]c(C)n2)cc1[N+](=O)[O-] 29.1 µM [activator, single point]
NC(=O)c1ccc(NC(=O)C2CC(=O)N(c3ccc4c(c3)OCCO4)C2)cc1 (configuration not stated) 0.411 µM [activator, full curve]
O=C(O)CCC1COc2ccccc2O1 (configuration not stated) 29.1 µM [falling, single point]
Cc1cccc(-c2nc(CNC(=O)c3ccco3)cs2)c1 11.6 µM [falling, single point]
CCN1CCN(Cc2ccc(NC(=O)c3ccc(C)c(NC(=O)c4cc(-c5ccc(Br)cc5)n[nH]4)c3)cc2C(F)(F)F)CC1 29.1 µM [falling, single point]
N#CCCN(C1CCCCC1)S(=O)(=O)CCOc1ccccc1 8.2 µM [activator, partial curve]
COc1ccc(C(=O)c2c3ccc(C(F)(F)F)cc3[n+]([O-])n2CCCN)cc1 2.31 µM [falling, partial curve, poor fit]
CC(=O)c1cccc(NC(=S)N2CCN(c3ccccn3)CC2)c1 29.1 µM [falling, single point]
COc1ccc(-n2nc(C(=O)NCC(=O)NCCCN3CCN(C)CC3)c3ccccc3c2=O)cc1 29.1 µM [activator, single point]
Cc1ccc2c(C(=O)CN3CCN(c4ccccc4)CC3)c(C)[nH]c2c1 2.59 µM [activator, full curve, poor fit]
COc1ccc(S(=O)(=O)NC(C)C(=O)NCc2ccccn2)cc1OC (configuration not stated) 0.0046 µM [falling, full curve, poor fit]
CC(C)C[C@H](NC(=O)c1[nH]cnc1C(=O)Nc1ccccc1)C(=O)OC(C)(C)C 29.1 µM [falling, single point]

Lipid storage change, negative = inhibition, inactive:
Cc1ccc(NC(=O)CNC(=O)c2ccc(Br)o2)nc1
CCNC(=O)CN(CCc1ccccc1)S(C)(=O)=O
COc1ccc(C)cc1NS(=O)(=O)c1ccc2c(c1)N(C(C)=O)CCO2
NC(=O)c1cc(C(=O)Cc2ccc(Cl)cc2)c[nH]1
Cc1ccc(S(=O)(=O)CC(=O)Nc2ncc([N+](=O)[O-])s2)cc1

Lipid storage change, negative = inhibition, inconclusive:
Cc1ccc(S(=O)(=O)Nc2nc3ccccc3s2)cc1[N+](=O)[O-] 1.45%
CCOC(=O)c1ccc(NC(=S)NN2CCOCC2)cc1 13.7%
CCN(CC)C(c1ccc(C)cc1)c1nnnn1C1CCCCC1 (configuration not stated) 30.9%
CCOc1ccc(CCNC(=O)C2(c3ccccc3)CC2)cc1OCC 18.6%
Oc1cccc(/C=N/Nc2cccc3cccnc23)c1 -19.1%
COc1ccc(C)cc1S(=O)(=O)N1CCCC(C(=O)N2CCOCC2)C1 (configuration not stated) -2.23%
CCOCCCNCc1cccc(OCc2ccc(F)cc2)c1 -18.6%
O=C(NC1CC1)C1=C[C@@H](c2coc3ccccc3c2=O)C[C@@H](OCc2ccc(CO)cc2)O1 10.6%
COc1ccc(-c2cc(C3CC3)nc3sc(C#N)c(N)c23)cc1 59.2%
COc1cccc(CC(=O)Nc2cc(S(=O)(=O)N3CCOCC3)ccc2N2CCN(C)CC2)c1 -19.8%
O=C(c1ccc(C(F)(F)F)cc1)C1CCCN(C(=O)c2csnn2)C1 (configuration not stated) 11.9%
COc1ccccc1N1CCN(C2CCCN(C(=O)C3=NN(C)C(=O)CC3)C2)CC1 (configuration not stated) 143%
Cc1nnc(SCC(=O)Nc2c(C)n(C)n(-c3ccccc3)c2=O)n1Cc1ccccc1 11.2%
CSc1ccccc1C(=O)NC1CCCN(c2ccc(C(F)(F)F)cn2)C1 (configuration not stated) 13%
COc1ccc(S(=O)(=O)CCc2nnc(NC(=O)c3ccc(F)cc3)s2)cc1 -15.2%
Cc1ccc(CNc2ccc(Cl)cc2[N+](=O)[O-])cc1 -21.7%
CCC(c1nnnn1Cc1cccs1)N1CCN(c2nc3ccccc3s2)CC1 (configuration not stated) 33.6%
CCCNC(=O)c1ccc(CNc2c(N3CCC(C(=O)OCC)CC3)c(=O)c2=O)cc1 -32.5%
CC(C)c1nc(C#N)c(NN)o1 -2.61%
CC1CC(=O)C2=C(C1)Nc1ccccc1SC2c1ccc(F)cc1 (configuration not stated) -25%
O=C1NN(c2ccc(F)cc2)C(=O)/C1=C\C=C\c1ccco1 -17.3%
CCOCCCn1c(SCC(=O)Nc2ccc(C(N)=O)cc2)nc2ccccc2c1=O 2.79%
COc1ccc(S(=O)(=O)N(C)CC(=O)NCc2cccnc2)cc1 4.95%
O=C(CCC(=O)N(CC(=O)NC1CCCCC1)Cc1ccc(F)cc1)Nc1nccs1 -24.2%
O=[N+]([O-])c1ccc(CNC2CCCc3ccccc32)cc1 (configuration not stated) 35.4%
Cc1ccc(Cn2c(Sc3ncccn3)nc3c2c(=O)[nH]c(=O)n3C)cc1 36.2%
Cc1c(C(=O)C(=O)N2c3ccc(F)cc3CCC2C)c2ccccc2n1C (configuration not stated) -22.5%
Cc1ccccc1NC(=O)Cc1nc(COC(=O)c2ccc(O)cc2O)cs1 -23.9%
CN(CC(=O)Nc1ccc(N2CCOCC2)cc1)C(=O)c1cc2c(s1)CCCC2 -5.84%
Cc1cc(N/N=C/c2ccncc2)nc2ccccc12 1.84%
COc1ccc(Cl)cc1NC(=O)COC(=O)C(CC(C)C)N1C(=O)C2CC=CCC2C1=O (configuration not stated) -29.9%
C/C(=C\C(=O)c1ccccc1)Nc1cccc(O)c1 23.6%
CC(=O)NC(Cc1c[nH]c2ccccc12)C(=O)NCc1ccco1 (configuration not stated) 8.09%
Cc1cccc2nc(CSc3nc4cc([N+](=O)[O-])ccc4s3)cn12 15.2%
N#CCc1ccc(Oc2ncc(C(F)(F)F)cc2Cl)cc1 6.61%
O=C(Nc1cccc(S(=O)(=O)N2CCCC2)c1)c1cccnc1 -26.5%
Cc1c(NS(=O)(=O)c2cccc(C(=O)OCC(=O)N(C)C3CCCCC3)c2)c(=O)n(-c2ccccc2)n1C -0.594%
O=C(O)c1ccc(CNC(=O)C23CC4CC(CC(C4)C2)C3)cc1 -40.7%
O=C1OC(c2ccccc2)=NC12CC2c1ccc(Cl)cc1 (configuration not stated) -28%
COC(=O)[C@@H](Cc1c[nH]c2ccccc12)NC(=O)c1ccc2c(c1)OCO2 20.1%
CCC(C)NCC(O)(c1ccc(Cl)cc1)c1ccc(Cl)cc1 (configuration not stated) 31.2%
CCN(CC(=O)Nc1ccc(NC(C)=O)cc1)C(=O)CSCc1c(C)noc1C 14.2%
Cn1c(NC(=O)Cc2cccs2)cc(=O)n(C)c1=O 7.23% [at 9.22 µM]
O=C(CCCn1cnc([N+](=O)[O-])n1)Nc1ccc(F)c(Cl)c1 7.63%
Cc1ccc(C)c(OCc2cc(C(=O)NC3CCN(Cc4ccccc4)CC3)no2)c1 -174%
CCOC(CNc1ncnc2sc(-c3ccccc3)cc12)OCC 7.79%
CCN(C(=O)c1cccnc1SC)C12CC3CC(CC(C3)C1)C2 -28.4%
Cn1c(=O)c(Sc2ccc(Cl)cc2)c(O)c2ccccc21 16.3%
COC(=O)c1ccc(N2C(=O)CC(N3CCOCC3)C2=O)cc1 (configuration not stated) -4.65%
O=C(CC1(O)C(=O)Nc2ccccc21)c1ccc(-n2cnnn2)cc1 (configuration not stated) -7.08%
CCCc1ccc(OCC(=O)Nc2cc(S(=O)(=O)CC)ccc2O)cc1 9.25%
CCN(C(=O)COC(=O)CCC(=O)c1cccs1)c1c(N)n(Cc2ccccc2)c(=O)[nH]c1=O -14.1%

Quoted from the listing (two entries):
Lipid storage change, negative = inhibition, inconclusive:
CCN(CC)C(c1ccc(C)cc1)c1nnnn1C1CCCCC1 (configuration not stated) 30.9%
CCOc1ccc(CCNC(=O)C2(c3ccccc3)CC2)cc1OCC 18.6%

3 structures already listed, sorted by heavy-atom count, falling.
Lipid storage change, negative = inhibition, inconclusive:
CCN(CC(=O)Nc1ccc(NC(C)=O)cc1)C(=O)CSCc1c(C)noc1C 14.2%
COc1ccc(C)cc1S(=O)(=O)N1CCCC(C(=O)N2CCOCC2)C1 (configuration not stated) -2.23%
COc1ccc(S(=O)(=O)N(C)CC(=O)NCc2cccnc2)cc1 4.95%
